Data taken from PMC13039736.
No constants are given. Whether binding was seen depends on the method and setting. Binding seen in cells or lysates may run through a third protein. Some binding calls cover weakened binding; strength is not graded here. For some assays here: Where a sequence is shown, tags or fusion partners need not be part of it. Blank lines part the entries; values can stand above or below the binder they belong to.

Amino acid sequences for entries named in this document (tags omitted). A change or cut given only in a name is not applied to a line headed by its entry. Residues count along the entry.
UniProt Q9UNI6: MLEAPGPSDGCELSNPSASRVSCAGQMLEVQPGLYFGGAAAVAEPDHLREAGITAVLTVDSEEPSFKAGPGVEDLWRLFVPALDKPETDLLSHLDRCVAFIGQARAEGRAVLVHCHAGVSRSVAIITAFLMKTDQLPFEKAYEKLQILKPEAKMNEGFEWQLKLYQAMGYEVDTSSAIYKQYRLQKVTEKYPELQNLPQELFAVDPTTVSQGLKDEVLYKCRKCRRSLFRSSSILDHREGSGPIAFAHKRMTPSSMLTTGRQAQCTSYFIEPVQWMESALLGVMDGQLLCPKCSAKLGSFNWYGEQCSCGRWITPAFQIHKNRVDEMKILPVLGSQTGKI
LAP-DUSP12 C-terminus truncation (amino acids 169-340): residues 169-340 of Q9UNI6

Experiments:
HA-DUSP12-C115A = HA-DUSP12-C115A (UniProt Q9UNI6); test: co-IP; in vitro binding assay: HA-tagged DUSP12 forms and FLAG-ZNF622 expressed by coupled in vitro transcription/translation, incubated together with anti-HA magnetic beads 1.5 h at 4 C, washed with LAP200 buffer (200 mM KCl, 0.05% NP-40, 0.5 mM DTT); immunoblot
[1] = biological target: HA-DUSP12 C-terminus truncation (amino acids 169-340) (UniProt Q9UNI6); test: as above
[2] = biological target: HA-DUSP12-WT (full length) (UniProt Q9UNI6); test: as above
HA-DUSP12-R121A = HA-DUSP12-R121A (UniProt Q9UNI6); test: as above
LAP-DUSP12-R121A = LAP-DUSP12-R121A (UniProt Q9UNI6); test: co-IP; LAP-tagged induced HeLa stable cell lines (asynchronous or Taxol-arrested) lysed, incubated with S-protein Agarose 2 h at 4 C, washed with LAP100 buffer (100 mM KCl, 0.05% NP-40, 0.5 mM DTT); immunoblot for ZNF622
[3] = biological target: LAP-DUSP12-WT (full length) (UniProt Q9UNI6); test: as above
[4] = biological target: LAP-DUSP12 C-terminus truncation (amino acids 169-340) (UniProt Q9UNI6); test: as above
LAP-DUSP12-C115A = LAP-DUSP12-C115A (UniProt Q9UNI6); test: as above

binding (HA-DUSP12-C115A): binds
binding [1]: binds
binding [2]: binds
binding (HA-DUSP12-R121A): binds
B1: FLAG-ZNF622 (protein, UniProt Q969S3 1-477)
chain: MATYTCITCRVAFRDADMQRAHYKTDWHRYNLRRKVASMAPVTAEGFQERVRAQRAVAEEESKGSATYCTVCSKKFASFNAYENHLKSRRHVELEKKAVQAVNRKVEMMNEKNLEKGLGVDSVDKDAMNAAIQQAIKAQPSMSPKKAPPAPAKEARNVVAVGTGGRGTHDRDPSEKPPRLQWFEQQAKKLAKQQEEDSEEEEEDLDGDDWEDIDSDEELECEDTEAMDDVVEQDAEEEEAEEGPPLGAIPITDCLFCSHHSSSLMKNVAHMTKDHSFFIPDIEYLSDIKGLIKYLGEKVGVGKICLWCNEKGKSFYSTEAVQAHMNDKSHCKLFTDGDAALEFADFYDFRSSYPDHKEGEDPNKAEELPSEKNLEYDDETMELILPSGARVGHRSLMRYYKQRFGLSRAVAVAKNRKAVGRVLQQYRALGWTGSTGAALMRERDMQYVQRMKSKWMLKTGMKNNATKQMHFRVQVRF

binding (LAP-DUSP12-R121A): binds
binding [3]: binds
binding [4]: binds
binding (LAP-DUSP12-C115A): binds
B2: zinc finger protein 622 (ZNF622), endogenous (protein, UniProt Q969S3 1-477)
chain: B1 chain
